# Measurements reported in publication PMC7819943, “Rice protein-binding microarrays: a tool to detect cis-acting elements near promoter regions in rice”.
# Chains of the proteins cited; added tags and fusions are not shown.
# UniProt Q0JBA9, entry or part of it: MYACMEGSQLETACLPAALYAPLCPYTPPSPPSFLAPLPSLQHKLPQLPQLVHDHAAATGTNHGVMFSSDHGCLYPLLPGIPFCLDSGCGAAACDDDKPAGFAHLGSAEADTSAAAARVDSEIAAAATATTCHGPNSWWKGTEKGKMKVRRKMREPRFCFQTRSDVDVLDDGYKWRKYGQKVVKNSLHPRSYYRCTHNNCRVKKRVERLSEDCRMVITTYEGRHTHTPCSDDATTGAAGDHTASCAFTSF
# The list shows a part of the results.
# Target: OsWRKY34 (Oryza sativa, UniProt Q0JBA9 1-250)
# Test: protein-binding microarray (RPBM); PBS, 2% BSA, 51.3 ng/ul salmon testes DNA, 50 uM zinc acetate, 200 nM TF, 25 C, 1 h; high values mean tight binding
# Settings: protein: recombinant; tags: N-terminal polyhistidine and DsRed monomer fusion (pET32a); label: CyDye5-dUTP incorporated in the synthesized complementary strand; 3' TTTTT single-stranded linker to array surface; dsDNA, one strand shown
# How it was run: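 Polyhistidine-tagged DsRed fusions of transcription factors, joined at the N-terminus, were expressed in E. coli BL21-CodonPlus and isolated on Ni–NTA. They were incubated at 200 nM for 1 h at 25 °C on a custom Agilent array, double-stranded and BSA-blocked, in PBS with 2% BSA, salmon testes DNA and 50 µM zinc acetate. The binding signal is per-feature fluorescence intensity (arbitrary units) read on an Axon 4000B scanner after washing.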
row,Sequence,binding signal
1,CCTTGCTGATATTGGGCTTGCGGGGAAGGAGGTTGATATTCGGAGTCACCTAGTGCAG,9120 fluorescence intensity (a.u.)
2,TCGCTGGTGGGGCTCGGCTGGGCGGGGCTGTGGTTCCTCACGGAGTCACCTAGTGCAG,16300 fluorescence intensity (a.u.)
3,GAGACCCAATAATCCATTGCATTGCTCTGCCAGGGTTCTACGGAGTCACCTAGTGCAG,8040 fluorescence intensity (a.u.)
4,TCCGTCGCGCCGCGCGCTTTCTTCTTCTTCTTCTTCTTCTCGGAGTCACCTAGTGCAG,8740 fluorescence intensity (a.u.)
5,CCCACACTTGGAACCTTGGATCATCTCATCTCACACACCCCGGAGTCACCTAGTGCAG,8640 fluorescence intensity (a.u.)
6,CTCGCCCCTGTCTCCGGCCAACCTCAATCGATCCCGCAACCGGAGTCACCTAGTGCAG,11200 fluorescence intensity (a.u.)
7,TTTCTTTTCTTTTCATTTCCCTGTGTACTTGTTCTGATCTCGGAGTCACCTAGTGCAG,9290 fluorescence intensity (a.u.)
8,ACTCGGTCCAACCAAACCGGCCGCTAGTACCAATCGCTACCGGAGTCACCTAGTGCAG,8500 fluorescence intensity (a.u.)
9,TTGCCCATTCCATAGTTCAATCTTTTCATAACTATCACGCCGGAGTCACCTAGTGCAG,8680 fluorescence intensity (a.u.)
10,GTGGTTTGAACGAATGAGTGAAGGTATACTCGGGGTAATTCGGAGTCACCTAGTGCAG,8770 fluorescence intensity (a.u.)
11,CCGCTTTATCCTGCCCATTTAAATACCCATACTGTGCTTCCGGAGTCACCTAGTGCAG,8110 fluorescence intensity (a.u.)
12,AGTCATTTCCCGCGCGTCAGACCTGACGTCAGACGACGATCGGAGTCACCTAGTGCAG,8980 fluorescence intensity (a.u.)
13,GCCCGCAGTCTTTGTCGGGTTAGGATCCGTTTTGTGTTAACGGAGTCACCTAGTGCAG,8130 fluorescence intensity (a.u.)
14,TGTTACCAATGGAGCATATGATCATATTTCTTTCTTTATGCGGAGTCACCTAGTGCAG,8420 fluorescence intensity (a.u.)
15,ATGCGCGCGGGACAGTGTGTGTGATGGGGTGAGCCAATTGCGGAGTCACCTAGTGCAG,8310 fluorescence intensity (a.u.)
16,TCCCTCTCGATCGCTTCCCGTGCTCTCGCTCTCTCGCTTGCGGAGTCACCTAGTGCAG,10100 fluorescence intensity (a.u.)
17,TTCTTCTCTTTGATTAACTGTTTGGATTGTTATGTAGGTTCGGAGTCACCTAGTGCAG,9120 fluorescence intensity (a.u.)
18,ATGTGGAGGTCAAGGTTCGCGTTGGCCGATCTGGTTGAGGCGGAGTCACCTAGTGCAG,9830 fluorescence intensity (a.u.)
19,GTCGGGGTATGGTCTCGGGTGGTCTGCCTATAAATACCAGCGGAGTCACCTAGTGCAG,15200 fluorescence intensity (a.u.)
20,CCGTAATAAATTTATTTTTTGCTTCTTCAGTTTGTCCTAACGGAGTCACCTAGTGCAG,8500 fluorescence intensity (a.u.)
21,GGCCTCCTCGCATGGAACGCCGTCGTCTACTCGCTCCCATCGGAGTCACCTAGTGCAG,8630 fluorescence intensity (a.u.)
22,CTTAAGGTTCTCTTGGTTTGAGCTTAGATTTATTGTCTTACGGAGTCACCTAGTGCAG,9420 fluorescence intensity (a.u.)
23,GGAGGTGTGTGTGTGACAGTGTGTGAGTGTGTTGACAATACGGAGTCACCTAGTGCAG,10600 fluorescence intensity (a.u.)
24,CACCCCGTCCGTTCCTCTTTGCCGGCCGACTAGTCTCAACCGGAGTCACCTAGTGCAG,8160 fluorescence intensity (a.u.)
25,TTGGAAAGCCGGTGGGGTGCGGGTGGCTCGTGGCGATCAGCGGAGTCACCTAGTGCAG,8700 fluorescence intensity (a.u.)
26,GGTTTTTTCATCGAAGTTTATTTTTCAGCCTTTGCTTTTACGGAGTCACCTAGTGCAG,10800 fluorescence intensity (a.u.)
27,GTCATTTTTTACCGCGGCTCCTCAGCTCGACCGACATGTGCGGAGTCACCTAGTGCAG,12700 fluorescence intensity (a.u.)

row,Sequence,binding signal
1,CGTTCAAAACTTTGTTATAAGGGGCCATACAGGGGAAAAACGGAGTCACCTAGTGCAG,10200 fluorescence intensity (a.u.)
2,CTATCCATTATGCACCCATCCATCCATCTATCCTCACCCACGGAGTCACCTAGTGCAG,8350 fluorescence intensity (a.u.)
3,GAACCGAACCCTGCAGTATACACACTTGTTCCATTAATTACGGAGTCACCTAGTGCAG,11500 fluorescence intensity (a.u.)
4,TTTTCTCTGAGTTTATAAACCTTGCAGGAAAACGATCCACCGGAGTCACCTAGTGCAG,8370 fluorescence intensity (a.u.)
5,GGTAGACACATATACACTTTTATACTCGTGTTATACATATCGGAGTCACCTAGTGCAG,8460 fluorescence intensity (a.u.)
6,ATTCACCGTCTGAATTTATTGTTTCTGTTTTGCTAGATCTCGGAGTCACCTAGTGCAG,8920 fluorescence intensity (a.u.)
7,GATTGAGGCGGGGAGCGTTAGATGGGTAACTTTGCAAATGCGGAGTCACCTAGTGCAG,9330 fluorescence intensity (a.u.)
8,GAGCCACACCAACAACAACAATCCAAACCCACGCACACACCGGAGTCACCTAGTGCAG,8080 fluorescence intensity (a.u.)
9,GACGTATTGTTCTATGCACGATGAGCTGACTTTGCTTTGACGGAGTCACCTAGTGCAG,9210 fluorescence intensity (a.u.)
10,AGGACTATAGCTTCGGCTTCACTTCTCCTATAGCTTAAATCGGAGTCACCTAGTGCAG,8560 fluorescence intensity (a.u.)
11,TAAACACGCTCACCTCCCACTTATACCCTTCTGGTTGTTTCGGAGTCACCTAGTGCAG,9330 fluorescence intensity (a.u.)
12,GTTGTTGACCGTGCGTCGCTGGTTCAACGTTGATGGAGTTCGGAGTCACCTAGTGCAG,11100 fluorescence intensity (a.u.)
13,ACTTATTGAGATATTTATCTCACGCGCCCGGCACGTGCTCCGGAGTCACCTAGTGCAG,9860 fluorescence intensity (a.u.)
14,GCCATTAATCACCCACAGCTTCTCGTTGGAGAAATTTCCCCGGAGTCACCTAGTGCAG,8160 fluorescence intensity (a.u.)
15,AGAATCCTGTCTTTTTTATATTCCTACATTTCTTTCAACCCGGAGTCACCTAGTGCAG,9180 fluorescence intensity (a.u.)
16,GTAATTCTGTTGTCATACGGTTTATTGTGTGGTTGCTGAACGGAGTCACCTAGTGCAG,9010 fluorescence intensity (a.u.)
17,CAACTGTTAGAAGAGAGGGAAGGGTGGGCCATATTAAGTGCGGAGTCACCTAGTGCAG,8450 fluorescence intensity (a.u.)
18,TTTGGGGTTCAGCGGGCATTTGTTTTGATTGTTTCTTATTCGGAGTCACCTAGTGCAG,23400 fluorescence intensity (a.u.)
19,ATCCATCCATCTATTCGCTTCCCTTTCCTTGCACCTCTGCCGGAGTCACCTAGTGCAG,9050 fluorescence intensity (a.u.)
20,TTTTTCTATTCCTTAAATTATATATTTAATTCCGAATTTCCGGAGTCACCTAGTGCAG,9180 fluorescence intensity (a.u.)
21,ACCACATGCTCATCTTATTGTTTGTTTCGTTTCACCTCTACGGAGTCACCTAGTGCAG,10700 fluorescence intensity (a.u.)
22,CGCTAGTTCTCTCTTGGTGTTCCTGGATGATGCCGTCGAGCGGAGTCACCTAGTGCAG,8670 fluorescence intensity (a.u.)
23,CCTTCCGTTCGACGCGACACGCGAGTCATTGCTGCCACCACGGAGTCACCTAGTGCAG,8110 fluorescence intensity (a.u.)
24,GGACCACCCCAACTCCTCTTATTAAGTACTCTCTTCGTTTCGGAGTCACCTAGTGCAG,8960 fluorescence intensity (a.u.)
25,CATGCGGGGCGCGGGCGGCGGTGCAGGGCGGGGTGCGGCCCGGAGTCACCTAGTGCAG,8730 fluorescence intensity (a.u.)
26,GAGATGATCGCGCGCCACCACTCGCCGCCGCCGCTGGAATCGGAGTCACCTAGTGCAG,8830 fluorescence intensity (a.u.)
27,CTGATCGAGCACAACATGTCCAGCACCACCAGCTCTCGCCCGGAGTCACCTAGTGCAG,9210 fluorescence intensity (a.u.)

# Two entries from above in a different format:
row | Sequence | binding signal
14 | GCCATTAATCACCCACAGCTTCTCGTTGGAGAAATTTCCCCGGAGTCACCTAGTGCAG | 8160 fluorescence intensity (a.u.)
17 | CAACTGTTAGAAGAGAGGGAAGGGTGGGCCATATTAAGTGCGGAGTCACCTAGTGCAG | 8450 fluorescence intensity (a.u.)
